The exact form of at least one protein or probe is not confirmed. Weaker means in comparison with the reference protein, sequence or condition of that experiment.
System: mCherry-AlpA
Assay: EMSA
Conditions: 0-16 uM protein, 500 ng DNA, EMSA: 30 min at 30 C, 10% native PAGE at 4 C, 150 V, binding buffer, recombinant protein, protein details: N-terminal mCherry, His-tag (pET16B-mCH-AlpA)

| Sequence | binding result (residual unspecific binding, smear of lower shifted bands) | binding result (sharp, highly shifted band) |
| --- | --- | --- |
| CGTATTATGTCTCGAGGTATTATGTACTTCGGTATTATGTACTTCGGTATTATGTACTTCGGTATTATGTACTTCGGTATTATGTACTTCGGTATTATGTA / ACATAATACCGAAGTACATAATACCGAAGTACATAATACCGAAGTACATAATACCGAAGTACATAATACCGAAGTACATAATACCTCGAGACATAATACGCATG [scrambled alpS] | binds more weakly |  |
| CTTAATTGTCCTCGAGTTAATTGTCACTTCGTTAATTGTCACTTCGTTAATTGTCACTTCGTTAATTGTCACTTCGTTAATTGTCACTTCGTTAATTGTCCATGTCA / AGACATGGACAATTAACGAAGTGACAATTAACGAAGTGACAATTAACGAAGTGACAATTAACGAAGTGACAATTAACGAAGTGACAATTAACTCGAGGACAATTAAGCATG [alpS (seven alpS repeats)] |  | binds |

From paper PMC5539076
